In patent US12590966B2, “Method for treating cancer” (THE CHILDREN'S MEDICAL CENTER CORPORATION, priority 2019, dated 2026):
At least one compound was matched to its structure with a doubt left.

Test system: Jurkat cells
Assay: GSK3α body (puncta) formation by confocal immunofluorescence microscopy
Format: cell-based, human
Conditions: rapamycin 10 nM with vehicle or asparaginase 100 U/L, 48 hrs
Experimental: FIGS. 4A-4D show asparagine starvation induces phase separation of GSK3α into cytoplasmic bodies (or puncta), but not GSK3b. (FIG. 4A) Confocal immunofluorescence microscopy for GSK3α or the nuclear marker DAPI, in Jurkat cells treated with vehicle or asparaginase (100 U/L) for 48 hours. (FIG. 4B) Confocal immunofluorescence microscopy for GSK3β or the nuclear marker DAPI, in Jurkat cells treated with vehicle or asparaginase (100 U/L) for 48 hours. (FIG. 4C) Number of puncta per 50 cells. (FIG. 4D) Formation of GSK3α bodies is selective to asparaginase, and is not induced by other cellular stressors such as other chemotherapeutics or heat shock. ****, p<0.0001. ns (not significant), p>0.05.
FIGS. 6A and 6B show GSK3α bodies function in the protein ubiquitination-proteasomal degradation pathway in response to asparagine starvation. (FIG. 6A) Jurkat T-ALL cells were treated with vehicle, asparaginase, the GSK3α inhibitor BRD0705, or the combination of asparaginase and BRD0705 (combo). […] (FIG. 6B) Quantification of the immunofluorescence in 50 cells from each condition. Coloc refers to co-localization of both GSK3α and ubiquitin (ub), as determined by yellow color on the merged confocal image. ****, p<0.0001. ns (not significant), p>0.05. […]

CO[C@H]1C[C@@H]2CC[C@@H](C)[C@@](O)(O2)C(=O)C(=O)N2CCCC[C@H]2C(=O)O[C@H]([C@H](C)C[C@@H]2CC[C@@H](O)[C@H](OC)C2)CC(=O)[C@H](C)/C=C(\C)[C@@H](O)[C@@H](OC)C(=O)[C@H](C)C[C@H](C)/C=C/C=C/C=C/1C [rapamycin]
Effect on GSK3α body formation: lack of effect
